This is an account of results in PMC10039360.

In the test the target is T1, myc-LZTFL1 (Leucine Zipper Transcription Factor-like 1) (UniProt Q9NQ48).
T1 sequence: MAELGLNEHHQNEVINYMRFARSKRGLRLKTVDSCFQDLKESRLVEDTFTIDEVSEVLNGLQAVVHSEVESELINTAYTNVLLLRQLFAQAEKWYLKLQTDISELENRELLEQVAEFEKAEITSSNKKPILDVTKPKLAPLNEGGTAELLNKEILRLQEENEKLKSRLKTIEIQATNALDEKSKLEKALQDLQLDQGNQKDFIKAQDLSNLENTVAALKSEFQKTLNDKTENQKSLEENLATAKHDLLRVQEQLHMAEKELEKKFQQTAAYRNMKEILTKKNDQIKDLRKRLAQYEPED
The test is described as follows: co-IP; HEK293T cells transfected with myc-LZTFL1 and Flag-ZNRF1; immunoprecipitated with control IgG or anti-myc antibody, blotted with anti-flag or anti-myc antibody.

Results are given in words; binding and its absence hold for the method and conditions named. Binding seen in cells or lysates may run through a third protein. Some results given as binding are weak or reduced against the parent protein; the word gives no strength. Where a sequence is shown, tags or fusion partners need not be part of it.

B1: Flag-ZNRF1 (E3 ubiquitin-protein ligase ZNRF1) (enzyme, UniProt Q8ND25 1-227)
chain: MGGKQSTAARSRGPFPGVSTDDSAVPPPGGAPHFGHYRTGGGAMGLRSRSVSSVAGMGMDPSTAGGVPFGLYTPASRGTGDSERAPGGGGSASDSTYAHGNGYQETGGGHHRDGMLYLGSRASLADALPLHIAPRWFSSHSGFKCPICSKSVASDEMEMHFIMCLSKPRLSYNDDVLTKDAGECVICLEELLQGDTIARLPCLCIYHKSCIDSWFEVNRSCPEHPAD
As for B1, the binding entry is reported as “binds”.
